Laboratory results: PMC8384837
Where a chain is given by its changes, count along the chain named. This is one part of the list. For part of these data: At the low end of the ranking, values are background and their order means little.

Legend:
Conditions in all cases: yeast three-hybrid, YBZ-1, SC-Leu-His + 0.5 mM 3-AT, 4 days
[1] = target: T1, PUM1 PUF domain R5-AAR C1007A + R1008A + Q1011R (Homo sapiens) (UniProt Q14671)
T1 sequence: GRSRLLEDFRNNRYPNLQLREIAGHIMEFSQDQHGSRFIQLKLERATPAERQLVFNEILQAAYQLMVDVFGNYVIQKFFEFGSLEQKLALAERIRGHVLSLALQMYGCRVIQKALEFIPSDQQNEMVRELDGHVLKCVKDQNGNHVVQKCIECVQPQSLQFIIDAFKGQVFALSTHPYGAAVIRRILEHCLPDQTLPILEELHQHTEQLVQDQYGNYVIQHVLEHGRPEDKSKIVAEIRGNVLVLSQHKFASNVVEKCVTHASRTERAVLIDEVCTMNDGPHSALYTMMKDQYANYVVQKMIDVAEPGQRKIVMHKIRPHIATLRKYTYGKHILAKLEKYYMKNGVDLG

[2] = target: T2, PUM1 PUF domain R5-AFF C1007A + R1008F + Q1011F (UniProt Q14671)
T2 sequence: T1 sequence with A181F, R184F

[3] = target: T3, PUM1 PUF domain R5-AFY C1007A + R1008F + Q1011Y (UniProt Q14671)
T3 sequence: T1 sequence with A181F, R184Y

[4] = target: T4, PUM1 PUF domain R5-AGR C1007A + R1008G + Q1011R (UniProt Q14671)
T4 sequence: T1 sequence with A181G

[5] = target: T5, PUM1 PUF domain R5-AKR C1007A + R1008K + Q1011R (Homo sapiens) (UniProt Q14671)
T5 sequence: T1 sequence with A181K

[6] = target: T6, PUM1 PUF domain R5-AQR C1007A + R1008Q + Q1011R (UniProt Q14671)
T6 sequence: T1 sequence with A181Q

[7] = target: T7, PUM1 PUF domain R5-ARR C1007A + Q1011R (Homo sapiens) (UniProt Q14671)
T7 sequence: T1 sequence with A181R

[8] = target: T8, PUM1 PUF domain R5-ASR C1007A + R1008S + Q1011R (Homo sapiens) (UniProt Q14671)
T8 sequence: T1 sequence with A181S

[9] = target: T9, PUM1 PUF domain R5-ATR C1007A + R1008T + Q1011R (UniProt Q14671)
T9 sequence: T1 sequence with A181T

[10] = target: T10, PUM1 PUF domain R5-AYF C1007A + R1008Y + Q1011F (Homo sapiens) (UniProt Q14671)
T10 sequence: T1 sequence with A181Y, R184F

[11] = target: T11, PUM1 PUF domain R5-AYY C1007A + R1008Y + Q1011Y (Homo sapiens) (UniProt Q14671)
T11 sequence: T1 sequence with A181Y, R184Y

[12] = target: T12, PUM1 PUF domain R5-CGR R1008G + Q1011R (UniProt Q14671)
T12 sequence: T1 sequence with A180C, A181G

[13] = target: T13, PUM1 PUF domain R5-CRR Q1011R (UniProt Q14671)
T13 sequence: T1 sequence with A180C, A181R

[14] = target: T14, PUM1 PUF domain R5-CSR R1008S + Q1011R (Homo sapiens) (UniProt Q14671)
T14 sequence: T1 sequence with A180C, A181S

[15] = target: T15, PUM1 PUF domain R5-DLR C1007D + R1008L + Q1011R (UniProt Q14671)
T15 sequence: T1 sequence with A180D, A181L

[16] = target: T16, PUM1 PUF domain R5-DQR C1007D + R1008Q + Q1011R (Homo sapiens) (UniProt Q14671)
T16 sequence: T1 sequence with A180D, A181Q

[17] = target: T17, PUM1 PUF domain R5-DRR C1007D + Q1011R (UniProt Q14671)
T17 sequence: T1 sequence with A180D, A181R

[18] = target: T18, PUM1 PUF domain R5-ELW C1007E + R1008L + Q1011W (UniProt Q14671)
T18 sequence: T1 sequence with A180E, A181L, R184W

[19] = target: T19, PUM1 PUF domain R5-ERK C1007E + Q1011K (Homo sapiens) (UniProt Q14671)
T19 sequence: T1 sequence with A180E, A181R, R184K

[20] = target: T20, PUM1 PUF domain R5-FKR C1007F + R1008K + Q1011R (UniProt Q14671)
T20 sequence: T1 sequence with A180F, A181K

[21] = target: T21, PUM1 PUF domain R5-FRG C1007F + Q1011G (Homo sapiens) (UniProt Q14671)
T21 sequence: T1 sequence with A180F, A181R, R184G

[22] = target: T22, PUM1 PUF domain R5-FRI C1007F + Q1011I (Homo sapiens) (UniProt Q14671)
T22 sequence: T1 sequence with A180F, A181R, R184I

[23] = target: T23, PUM1 PUF domain R5-FRN C1007F + Q1011N (Homo sapiens) (UniProt Q14671)
T23 sequence: T1 sequence with A180F, A181R, R184N

[24] = target: T24, PUM1 PUF domain R5-FRR C1007F + Q1011R (Homo sapiens) (UniProt Q14671)
T24 sequence: T1 sequence with A180F, A181R

[25] = target: T25, PUM1 PUF domain R5-FRS C1007F + Q1011S (Homo sapiens) (UniProt Q14671)
T25 sequence: T1 sequence with A180F, A181R, R184S

[26] = target: T26, PUM1 PUF domain R5-FRT C1007F + Q1011T (Homo sapiens) (UniProt Q14671)
T26 sequence: T1 sequence with A180F, A181R, R184T

[27] = target: T27, PUM1 PUF domain R5-FRV C1007F + Q1011V (Homo sapiens) (UniProt Q14671)
T27 sequence: T1 sequence with A180F, A181R, R184V

[28] = target: T28, PUM1 PUF domain R5-FRW C1007F + Q1011W (UniProt Q14671)
T28 sequence: T1 sequence with A180F, A181R, R184W

[29] = target: T29, PUM1 PUF domain R5-GAR C1007G + R1008A + Q1011R (Homo sapiens) (UniProt Q14671)
T29 sequence: T1 sequence with A180G

[30] = target: T30, PUM1 PUF domain R5-GGR C1007G + R1008G + Q1011R (Homo sapiens) (UniProt Q14671)
T30 sequence: T1 sequence with A180G, A181G

[31] = target: T31, PUM1 PUF domain R5-GKC C1007G + R1008K + Q1011C (Homo sapiens) (UniProt Q14671)
T31 sequence: T1 sequence with A180G, A181K, R184C

[32] = target: T32, PUM1 PUF domain R5-GKH C1007G + R1008K + Q1011H (Homo sapiens) (UniProt Q14671)
T32 sequence: T1 sequence with A180G, A181K, R184H

[33] = target: T33, PUM1 PUF domain R5-GKN C1007G + R1008K + Q1011N (UniProt Q14671)
T33 sequence: T1 sequence with A180G, A181K, R184N

[34] = target: T34, PUM1 PUF domain R5-GKR C1007G + R1008K + Q1011R (Homo sapiens) (UniProt Q14671)
T34 sequence: T1 sequence with A180G, A181K

[35] = target: T35, PUM1 PUF domain R5-GKS C1007G + R1008K + Q1011S (UniProt Q14671)
T35 sequence: T1 sequence with A180G, A181K, R184S

[36] = target: T36, PUM1 PUF domain R5-GLW C1007G + R1008L + Q1011W (Homo sapiens) (UniProt Q14671)
T36 sequence: T1 sequence with A180G, A181L, R184W

[37] = target: T37, PUM1 PUF domain R5-GMR C1007G + R1008M + Q1011R (Homo sapiens) (UniProt Q14671)
T37 sequence: T1 sequence with A180G, A181M

[38] = target: T38, PUM1 PUF domain R5-GPR C1007G + R1008P + Q1011R (Homo sapiens) (UniProt Q14671)
T38 sequence: T1 sequence with A180G, A181P

[39] = target: T39, PUM1 PUF domain R5-GQA C1007G + R1008Q + Q1011A (Homo sapiens) (UniProt Q14671)
T39 sequence: T1 sequence with A180G, A181Q, R184A

[40] = target: T40, PUM1 PUF domain R5-GRF C1007G + Q1011F (Homo sapiens) (UniProt Q14671)
T40 sequence: T1 sequence with A180G, A181R, R184F

[41] = target: T41, PUM1 PUF domain R5-GRR C1007G + Q1011R (Homo sapiens) (UniProt Q14671)
T41 sequence: T1 sequence with A180G, A181R

[42] = target: T42, PUM1 PUF domain R5-GRW C1007G + Q1011W (Homo sapiens) (UniProt Q14671)
T42 sequence: T1 sequence with A180G, A181R, R184W

Question: Which results are given for “GGCUAGAACUAGUGGAUCCCCCGGCGCCCGGCGGCUCGAGCCCGGGUAAGUGUGAAUAGUCUGCAUGCCGCCGGGCGCCAUGCCUGCAGGUCGACUCUAGAAAACAUG”?
Answer: binding signal (log2 enrichment (interaction score)) [1]: -1.82; binding signal (log2 enrichment (interaction score)) [2]: -5.66; binding signal (log2 enrichment (interaction score)) [3]: -3.16; binding signal (log2 enrichment (interaction score)) [4]: -2.88; binding signal (log2 enrichment (interaction score)) [5]: -0.7; binding signal (log2 enrichment (interaction score)) [6]: -3.4; binding signal (log2 enrichment (interaction score)) [7]: -1.87; binding signal (log2 enrichment (interaction score)) [8]: -1.48; binding signal (log2 enrichment (interaction score)) [9]: -2.03; binding signal (log2 enrichment (interaction score)) [10]: -0.79; binding signal (log2 enrichment (interaction score)) [11]: -0.77; binding signal (log2 enrichment (interaction score)) [12]: -6.8; binding signal (log2 enrichment (interaction score)) [13]: -2.31; binding signal (log2 enrichment (interaction score)) [14]: -0.83; binding signal (log2 enrichment (interaction score)) [15]: < -8.62; binding signal (log2 enrichment (interaction score)) [16]: -0.9; binding signal (log2 enrichment (interaction score)) [17]: -5.03; binding signal (log2 enrichment (interaction score)) [18]: < -7.45; binding signal (log2 enrichment (interaction score)) [19]: -0.9; binding signal (log2 enrichment (interaction score)) [20]: -2.61; binding signal (log2 enrichment (interaction score)) [21]: -1.67; binding signal (log2 enrichment (interaction score)) [22]: -0.86; binding signal (log2 enrichment (interaction score)) [23]: -1.56; binding signal (log2 enrichment (interaction score)) [24]: 0.33; binding signal (log2 enrichment (interaction score)) [25]: -1.51; binding signal (log2 enrichment (interaction score)) [26]: -1.95; binding signal (log2 enrichment (interaction score)) [27]: -1.89; binding signal (log2 enrichment (interaction score)) [28]: < -7.16; binding signal (log2 enrichment (interaction score)) [29]: -1.76; binding signal (log2 enrichment (interaction score)) [30]: -0.79; binding signal (log2 enrichment (interaction score)) [31]: -0.51; binding signal (log2 enrichment (interaction score)) [32]: -1.64; binding signal (log2 enrichment (interaction score)) [33]: -2.75; binding signal (log2 enrichment (interaction score)) [34]: -0.14; binding signal (log2 enrichment (interaction score)) [35]: -4.1; binding signal (log2 enrichment (interaction score)) [36]: -1.74; binding signal (log2 enrichment (interaction score)) [37]: -0.66; binding signal (log2 enrichment (interaction score)) [38]: -0.67; binding signal (log2 enrichment (interaction score)) [39]: -0.43; binding signal (log2 enrichment (interaction score)) [40]: -1.5; binding signal (log2 enrichment (interaction score)) [41]: -0.32; binding signal (log2 enrichment (interaction score)) [42]: 0.06
